According to PubChem BioAssay AID1487 (National Center for Advancing Translational Sciences (NCATS), 2009):
About 25 (0.01%) of roughly 200,000 compounds were called active. This list was built around the results that the source calls inconclusive (neither active nor inactive); the mix of calls is not that of the screen. Calls follow the shape of the dose curve; as a rule, active = well fitted inhibition curve with a large enough effect in the signal ratio, with a control signal flat (not every such curve was filed as active); inconclusive = small, poorly fitted or top-dose-only effect, or effect the other way, or a change in a side signal; inactive = flat fitted curve, though single readings scatter; the % refers to the signal ratio. Where the call is inconclusive, the potency comes from a doubtful curve fit.

Experiment: qHTS Assay for Modulators of Lamin A Splicing
Conditions: HeLa LMNA splicing GFP/RFP minigene ratio, 48 h; ratio change, negative = inhibition: at 46.1 µM (top of the series) unless noted
Source text: NCGC Assay Overview: Hutchinson-Gilford Progeria Syndrome (HGPS) is a pediatric premature aging disease caused by a spontaneous mutation in the lamin A/C (LMNA) gene. The mutation activates a cryptic splice site in the LMNA pre-mRNA which results in production of a pre-lamin A protein that cannot be processed properly. The mutant protein accumulates in the nucleus and negatively affects numerous cellular functions. Correction of the splicing defect in HGPS patient cells using a targeted oligonucleotide (exo11) leads to reversal of the cellular disease phenotypes. To identify small molecule modulators of aberrant LMNA splicing, a homogenous assay was constructed in HeLa cells that used a GFP containing minigene to report on correction of aberrant splicing in lamin A and a RFP (DsRed2) to report on cell viability, uniformity and nonspecific effects on the assay signal. This assay was adapted to laser-scanning microplate cytometry (Acumen, TTP Labtech) where miniaturization of the assay to a 1,536-well plate format was possible. References: Bowen, W. P.; Wylie, P. G. Application of Laser-Scanning Fluorescence Microplate Cytometry in High Content Screening. Assay Drug Dev Technol 2006;4:209-221. Scaffidi P, Misteli T. Reversal of the cellular phenotype in the premature aging disease Hutchinson-Gilford progeria syndrome. Nat.
NCGC Assay Protocol Summary: Reagents/Controls: Stable clones expressing DsRed2 and lamin A-EGFP were generated by Cell and Molecular Technologies in S3 HeLa cells. HeLa cells were prepared for the assay when they were 70-90% confluent. The cells were counted and resuspended in Opti-MEM I (no phenol red; Gibco), 2% FBS, 1% penicillin/ streptomycin (Gibco) at concentration of 120 cells/uL concentration. The suspension was passed through a Falcon basket filter with pore size 40um (Beckton Dickson). Control titrations: column […] 1536-well plate contained a sixteen point titration (1:2 dilutions) in duplicate of ancitabine (Sigma: A8598) beginning at 40 uM final concentration. Column 2 contained a sixteen point titration (1:2 dilutions) of cycloheximide beginning at 1.4 mM final concentration. Column 3 contained ancitabine at 40 uM and column 4 contained was the vehicle control (0.5% DMSO final concentration). Assay Steps: 5 uL of HeLa cells were plated in Aurora LoBase black clear bottom (cyclic-olefin polymer) 1536-well plates at a final density of 600 cells/well. Controls and library compounds were added with a 1536-well pin array using the Kalypsys pin-tool. The plates were then incubated for 48 hrs in a cell-culture incubator (37 °C; 5% CO2, 98% humidity). Following incubation the plates were read on the Acumen Explorer using the 488 nm laser. Data was collected on objects between 10 and 100 um in size. Cell objects were defined by a 15 um width x 10 um depth filter. The ratio of the total object intensity in PMT1 (500-530 nm emission; GFP) over PMT3 (575-640 nm emission; RFP) was calculated for analysis. Keywords: NIH Roadmap, MLSCN, MLI, MLSMR, qHTS, NCGC, lamin A, Progeria, RNA splicing.
% is scaled to controls: 0 for no effect and ±100 for the full control effect; potency is read from the fitted curve at half-maximal effect.

| Structure (SMILES) | ratio change, negative = inhibition | Potency |
| --- | --- | --- |
| CCC(C)NC(=O)c1ccc2c(c1)nc1n2CCCCC1 (stereo unspecified) | inconclusive: 13.2% [at 46 µM] | – |
| CCN(CC)S(=O)(=O)c1cccc(-c2n[nH]c(=S)n2/N=C/c2ccc(Br)cc2)c1 | – | inconclusive: 35.5 µM [fluorescent, single point] |
| CCOC(=O)CCCSc1nnc(CCCCCN2C(=O)c3cccc4cccc(c34)C2=O)o1 | inactive | – |
| N#Cc1c(C(F)(F)F)cc(-c2ccco2)nc1SCc1ccccn1 | inconclusive: 23.1% | – |
| Cc1cccc(NC(=O)c2ccoc2C)n1 | inactive | – |
| Cn1c(=O)c(=O)n(C)c2cc(S(=O)(=O)N3CCc4ccccc43)ccc21 | inconclusive: 11.9% | – |
| Cc1ccc(-n2nnc3c(=O)oc4ccccc4c32)cc1 | – | inconclusive: 25.1 µM [inhibitor, single point] |
| C/C(=N\NC(=O)c1ccc([N+](=O)[O-])c(C)c1)c1ccccc1Cl | inactive | – |
| Cn1c(=O)c2c(nc(Br)n2CCSc2ncccn2)n(C)c1=O | inconclusive: 2.11% | – |
| Cc1ccc(-n2nnnc2SCC(=O)N2CCc3ccccc3C2)cc1 | inactive | – |
| COc1ccc(CNc2nc(NCc3ccc(OC)cc3)n(C(=O)c3ccccc3[N+](=O)[O-])n2)cc1 | inactive | – |
| CCc1ccc2c(c1)c1nc(C)sc1n2CC | – | inconclusive: 35.5 µM [inhibitor, single point] |
| Cc1cccc2nc(=S)n(C(=O)c3ccco3)n12 | inactive | – |
| Cc1ccc2c(n1)sc1c(-c3ccccc3)c(C#N)c(N)nc12 | inactive | – |
| CC1(C)CC(=O)C2=C(C1)N=C1SCCC(=O)N1C2c1cccc([N+](=O)[O-])c1 (stereo unspecified) | inconclusive: -34% [at 46 µM] | – |
| Cc1nc2scc(-c3ccc(C(C)(C)C)cc3)c2c(=O)n1N | inactive: 10.1% [at 9.22 µM] | – |
| C#CCOCCOCCOCCNc1nc(N2CCN(C(=O)[C@H](C(C)C)n3cc(CCO)nn3)CC2)nc(N2CCN(C(=O)[C@H](C(C)C)n3cc(CCO)nn3)CC2)n1 | inconclusive: -0.0049% | – |
| Cc1ccc(C23CC4CC(CC(NC(=O)NCCN(C)C)(C4)C2)C3)cc1 | inactive | – |
| CN1C(=O)C(CC(=O)Nc2ccc(Cl)cc2)N(Cc2ccco2)C1=S (stereo unspecified) | inconclusive: -33.2% [at 46 µM] | – |
| CC(C)c1ccc(NC(=O)c2cc(S(=O)(=O)N3CCc4ccccc4C3)ccc2F)cc1 | inconclusive: 17.8% [at 46 µM] | – |
| CC[n+]1c(/C=C2\C=C(C)CC(C)C2)sc2ccccc21 (stereo unspecified) | inconclusive: 12.3% | – |

Two entries drawn at random from those above:

| Structure (SMILES) | ratio change, negative = inhibition | Potency |
| --- | --- | --- |
| CC1(C)CC(=O)C2=C(C1)N=C1SCCC(=O)N1C2c1cccc([N+](=O)[O-])c1 (stereo unspecified) | inconclusive: -34% [at 46 µM] | – |
| CCC(C)NC(=O)c1ccc2c(c1)nc1n2CCCCC1 (stereo unspecified) | inconclusive: 13.2% [at 46 µM] | – |

(more compounds)

| Structure (SMILES) | ratio change, negative = inhibition | Potency |
| --- | --- | --- |
| CC(NC(=O)CCCN1C(=O)CCn2nc(-c3cn(C)c4ccccc34)cc21)c1ccccc1 (stereo unspecified) | inactive | – |
| COc1c(C)cc(C(=O)C2CCCN(C(=O)Cn3ccc(C)n3)C2)cc1C (stereo unspecified) | inconclusive: 3.35% [at 46 µM] | – |
| Oc1ccccc1-c1cc(C(F)(F)C(F)F)[nH]n1 | – | inconclusive: 15.8 µM [fluorescent, single point] |
| O=C(O)c1ccccc1C(=O)NCC(O)c1ccccc1 (stereo unspecified) | inconclusive: -6.75% [at 46 µM] | – |
| NC(=O)C1CCN(C2=C(Cl)C(=O)c3ccccc3C2=O)CC1 | inconclusive: -13.3% | – |
| CC(=O)c1c(C)[nH]c(C(=O)OCC(=O)Nc2cc(S(=O)(=O)N3CCCCC3)ccc2C)c1C | – | inconclusive: 12.6 µM [falling, partial curve] |
| COC(=O)NNC(=S)Nc1cc(OC)ccc1OC | inactive | – |
| COc1ccc(NC(=O)CSc2nnc3n2CCCCC3)cc1 | inconclusive: 35% [at 9.22 µM] | – |
| CC(C)OC(=O)CC12CN3CN(C1)CC(CC(=O)OC(C)C)(C3)C2=O | inconclusive: -2.29% | – |
| O=C(N/N=C/c1cccnc1)C(O)(c1ccccc1)c1ccccc1 | inactive | – |
| CCOC(=O)c1[nH]c2ccc(OC)cc2c1NC(=S)N1CCN(c2ccccc2OC)CC1 | inconclusive: -32.6% | – |
| CSc1nc(N)c(C(=O)Nc2ccc([N+](=O)[O-])cc2)s1 | inconclusive: -18.9% [at 46 µM] | – |
| COc1ccccc1S(=O)(=O)c1ccccc1[N+](=O)[O-] | inconclusive: -6.8% | – |
| COc1ccc(CCNC(=O)c2cccnc2)cc1OC | inconclusive: 10.3% | – |
| O=C(COc1ccccc1F)Nc1nnc(SCc2cc(=O)c3ccccc3[nH]2)s1 | inconclusive: 3.81% [at 46 µM] | – |
| O=[N+]([O-])c1ccc(S(=O)(=O)N2CCSC2c2ccco2)cc1 (stereo unspecified) | – | inconclusive: 0.0063 µM [activator, full curve] |
| Cc1cc(F)ccc1S(=O)(=O)N1CCCOC1CNC(=O)C(=O)NCCC1=CCCCC1 (stereo unspecified) | inconclusive: 7.17% | – |
| COCC(C)n1c(C)cc(C(=O)CSc2nnnn2-c2ccc(O)cc2)c1C (stereo unspecified) | inconclusive: -17.6% [at 46 µM] | – |
| O=c1c2c(nc3c(-c4ccccc4)c[nH]n13)CCC2 | – | inconclusive: 17.8 µM [inhibitor, single point] |
| COc1ccc(CCNC(=O)c2cnn(-c3ccc(F)cc3)c2C2CCN(C(=O)OC(C)(C)C)CC2)c(OC)c1 | inconclusive: -8.52% [at 46 µM] | – |
| Cn1cc(C(=O)OCC2CCN(CCNS(C)(=O)=O)CC2)c2ccccc21 | inconclusive: 6.1% [at 46 µM] | – |

| Structure (SMILES) | ratio change, negative = inhibition | Potency |
| --- | --- | --- |
| CCN(CC)S(=O)(=O)c1ccc2c(c1)C(=NO)c1cc(S(=O)(=O)N(CC)CC)ccc1-2 | inconclusive: -13.7% | – |
| Cc1ccc2nc(-c3ccc(NS(=O)(=O)c4ccc(F)c(F)c4)cc3)sc2c1 | – | inconclusive: 35.5 µM [falling, single point] |
| Cc1ccc(C(=O)Nc2nc(COc3ccccc3)cs2)s1 | – | inconclusive: 8.91 µM [fluorescent, partial curve] |
| Cn1c(CSc2nnc(SCc3ccccc3)s2)nc2ccccc21 | inconclusive: -7.49% | – |
| Cc1[nH]c2ccc(-c3n[nH]c(=S)n3-c3ccccc3)cc2c1C | inconclusive: -19.8% | – |
| O=C(NC(Cc1c[nH]c2ccccc12)C(=O)N/N=C/c1ccc(Cl)cc1)c1cccs1 (stereo unspecified) | inconclusive: 1.29% [at 46 µM] | – |
| O=S(=O)(c1ccc(Cl)cc1)N1CCC(N2CCCCCC2)CC1 | inactive | – |
| Cc1ccccc1OCC(=O)Nc1ccc2nc(SCc3ccccc3)sc2c1 | – | inconclusive: 0.178 µM [activator, full curve, poor fit] |
| Cc1cc([N+](=O)[O-])nn1Cc1c(F)c(F)c(F)c(F)c1F | inconclusive: 52.7% [at 0.0737 µM] | – |
| CCN(CC)c1ccc(/C=C2\C(=O)c3ccc(C(=O)O)cc3C2=O)cc1 | inactive | – |
| CC1(C)CC(C(CC(=O)O)c2ccccc2)CCO1 (stereo unspecified) | inconclusive: 7.2% | – |
| O=C(OCC(=O)N1CCc2ccccc21)c1ccccc1 | inactive | – |
| Cc1ccccc1-c1nnc(SCC(=O)N(C)C2CCCCC2)o1 | inconclusive: 12.8% [at 46 µM] | – |
| CCN(C(=O)Cn1cnc2onc(-c3ccc(F)cc3)c2c1=O)c1cc(C)ccc1C | inconclusive: -3.48% [at 46 µM] | – |
| CCOC(=O)CSc1nc2cc(C(=O)NCC3CCCO3)ccc2c(=O)n1Cc1ccco1 (stereo unspecified) | inactive | – |
| O=C(COc1ccccc1O)Nc1ccccc1Cl | inconclusive: 6.63% | – |
| CC(C)N(Cc1nc(-c2ccc(Cl)cc2)no1)C(=O)/C=C/c1ccccc1 | inconclusive: -35.5% | – |
| COc1ccc(C)cc1N/C(N)=N/c1nc(C)cc(C)n1 | – | inconclusive: 10 µM [inhibitor, single point] |
| Oc1c(CN2CCc3ccccc3C2)cc(Cl)c2cccnc12 | – | inconclusive: 8.91 µM [inhibitor, partial curve] |
| C=CCn1c(NC(=O)CC)c(C(=O)OCC)sc1=S | inactive | – |
| O=C(Nc1ccc(S(=O)(=O)NCc2ccccc2)cc1)c1ccc(Br)o1 | – | inconclusive: 12.6 µM [fluorescent, partial curve] |

Another view of some results above:
Structure (SMILES)	ratio change, negative = inhibition	Potency
Cc1nc2scc(-c3ccc(C(C)(C)C)cc3)c2c(=O)n1N	inactive: 10.1% [at 9.22 µM]	–
Oc1ccccc1-c1cc(C(F)(F)C(F)F)[nH]n1	–	inconclusive: 15.8 µM [fluorescent, single point]
CCOC(=O)CSc1nc2cc(C(=O)NCC3CCCO3)ccc2c(=O)n1Cc1ccco1 (stereo unspecified)	inactive	–

Additional structures follow:

| Structure (SMILES) | ratio change, negative = inhibition | Potency |
| --- | --- | --- |
| Cc1nnc(NC(=O)c2cccc(F)c2)s1 | inactive | – |
| Cc1nc2sc(C(=O)c3ccccc3)c(N)c2c(C)c1C | inconclusive: -20.6% [at 46 µM] | – |
| Cc1ccccc1CSc1ccc(-c2ccc3c(c2)OCO3)nn1 | – | inconclusive: 35.5 µM [fluorescent, single point] |
| O=C(Nn1c(C2CCCCC2)nc2ccccc2c1=O)c1ccc([N+](=O)[O-])cc1 | inconclusive: -23.2% | – |
| CCOC(=O)N1CCC(NS(=O)(=O)c2cc(Br)cnc2N)CC1 | inconclusive: 3.81% | – |
| S=c1[nH]nc(-c2ccco2)n1-c1ccccc1Cl | inconclusive: 27.5% [at 46 µM] | – |
| Cc1cc(C(=O)N2CCN(c3ncccn3)CC2)c2cc(F)ccc2n1 | inconclusive: 1.98% | – |
| O=c1nc(Nc2ccc(OCc3ccccc3)cc2)sc2ncccc12 | inconclusive: -41.8% [at 46 µM] | – |
| Cc1ccc(-c2cc(C(=O)NCCCn3ccnc3)c3ccccc3n2)s1 | inconclusive: -3.22% | – |
| COc1cccc(C(=O)NCC2CCCO2)c1 (stereo unspecified) | inactive | – |
| CCn1c(-c2ccccc2O)n[nH]c1=S | inactive | – |
| Cn1c(CO)cnc1SCc1ccc([N+](=O)[O-])cc1 | inactive | – |
| O=C(NCc1cccs1)C1CCN(C(=O)N2CCOc3ccc(Cl)cc32)CC1 | inactive | – |
| Cc1ccc(NC(=O)CN(C)CC(=O)Nc2ccccc2-c2ccccc2)cc1 | inconclusive: -23% [at 46 µM] | – |
| CCCOc1nc2c(c(=O)n(C)c(=O)n2C)n1CCC | inconclusive: 9.95% | – |
| Cc1ccc(S(=O)(=O)C(CNC(=O)C(=O)NCc2ccccc2C)c2cccs2)cc1 (stereo unspecified) | inconclusive: 4.79% [at 46 µM] | – |
| Cc1cc2cc(C(c3nnnn3CC3CCCO3)N3CCCc4ccccc43)c(=O)[nH]c2cc1C (stereo unspecified) | inactive | – |
| CCOC(=O)Cn1c(=O)n(C2CCCCC2)c2nc(-c3ccc(C(C)C)cc3)nc(C(N)=O)c21 | inactive | – |
